Among the data in patent US20140073518A1 are binding values, retold here.

Protein sequences, listed by entry. Tags and fused reporters are not part of them. Lines headed by an entry give the natural chain unless they say otherwise; changes in a name come on top. Residues count along the entry.
UniProt P06756: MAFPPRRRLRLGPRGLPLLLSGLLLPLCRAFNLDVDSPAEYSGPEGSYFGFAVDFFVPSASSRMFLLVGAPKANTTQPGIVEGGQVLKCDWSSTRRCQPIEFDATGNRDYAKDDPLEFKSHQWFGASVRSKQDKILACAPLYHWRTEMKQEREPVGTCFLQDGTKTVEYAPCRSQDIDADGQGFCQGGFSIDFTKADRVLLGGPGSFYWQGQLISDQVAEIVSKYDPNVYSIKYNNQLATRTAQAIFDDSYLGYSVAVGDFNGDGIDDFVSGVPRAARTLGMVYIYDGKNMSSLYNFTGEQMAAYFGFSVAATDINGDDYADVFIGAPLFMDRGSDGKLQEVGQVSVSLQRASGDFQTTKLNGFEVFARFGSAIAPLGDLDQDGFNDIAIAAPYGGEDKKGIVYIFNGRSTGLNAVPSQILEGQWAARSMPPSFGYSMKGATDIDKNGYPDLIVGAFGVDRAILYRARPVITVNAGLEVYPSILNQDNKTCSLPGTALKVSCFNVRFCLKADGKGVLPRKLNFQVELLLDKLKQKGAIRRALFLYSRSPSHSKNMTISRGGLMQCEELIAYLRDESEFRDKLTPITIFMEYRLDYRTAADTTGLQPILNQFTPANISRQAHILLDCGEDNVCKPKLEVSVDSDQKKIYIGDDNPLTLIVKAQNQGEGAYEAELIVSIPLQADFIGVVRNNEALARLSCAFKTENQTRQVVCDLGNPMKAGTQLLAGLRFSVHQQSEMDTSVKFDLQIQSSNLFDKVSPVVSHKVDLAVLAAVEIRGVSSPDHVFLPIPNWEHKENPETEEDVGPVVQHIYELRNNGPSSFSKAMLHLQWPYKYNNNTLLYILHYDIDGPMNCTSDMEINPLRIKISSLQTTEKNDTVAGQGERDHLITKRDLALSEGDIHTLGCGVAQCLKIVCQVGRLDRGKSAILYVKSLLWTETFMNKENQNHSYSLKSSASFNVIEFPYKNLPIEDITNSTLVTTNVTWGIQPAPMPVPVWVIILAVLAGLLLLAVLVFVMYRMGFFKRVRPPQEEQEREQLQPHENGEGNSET
UniProt P08581, residues 25-932: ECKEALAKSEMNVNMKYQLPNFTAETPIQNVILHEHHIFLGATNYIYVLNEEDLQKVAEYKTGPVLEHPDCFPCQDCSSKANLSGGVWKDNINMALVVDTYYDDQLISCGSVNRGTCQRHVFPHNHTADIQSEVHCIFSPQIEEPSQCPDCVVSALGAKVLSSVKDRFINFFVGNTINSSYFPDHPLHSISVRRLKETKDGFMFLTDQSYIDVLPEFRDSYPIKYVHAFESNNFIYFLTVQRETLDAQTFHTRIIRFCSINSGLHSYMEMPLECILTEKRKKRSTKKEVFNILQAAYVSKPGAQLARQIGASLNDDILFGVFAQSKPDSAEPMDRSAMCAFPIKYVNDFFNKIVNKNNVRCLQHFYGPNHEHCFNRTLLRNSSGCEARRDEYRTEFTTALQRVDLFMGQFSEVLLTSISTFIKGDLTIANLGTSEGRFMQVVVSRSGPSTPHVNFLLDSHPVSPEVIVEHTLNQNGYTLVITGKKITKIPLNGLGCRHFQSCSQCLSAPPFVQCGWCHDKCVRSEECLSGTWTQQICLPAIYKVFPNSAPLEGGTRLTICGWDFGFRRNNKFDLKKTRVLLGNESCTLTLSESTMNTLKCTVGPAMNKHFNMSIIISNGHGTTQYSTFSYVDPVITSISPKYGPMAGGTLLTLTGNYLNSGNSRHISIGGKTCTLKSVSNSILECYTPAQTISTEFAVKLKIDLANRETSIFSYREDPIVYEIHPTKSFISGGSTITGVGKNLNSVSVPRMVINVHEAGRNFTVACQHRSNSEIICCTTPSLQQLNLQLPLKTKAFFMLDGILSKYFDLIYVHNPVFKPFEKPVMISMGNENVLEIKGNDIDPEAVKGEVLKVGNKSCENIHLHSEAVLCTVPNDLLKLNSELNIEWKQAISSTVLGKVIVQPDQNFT

Results are given in words; binding and its absence hold for the method and conditions named. Some results given as binding are weak or reduced against the parent protein; the word gives no strength. Sequences can lack the tags named with a protein.

Assay [1] deals with αvβ3 integrin on K562-αvβ3 cells (K562 leukemia cells transfected with αvβ3 integrin) (UniProt P06756). Nature of the assay: binding titration of the soluble fusion protein on K562-αvβ3 cells, flow cytometry; the cells express αvβ3 integrin and also Met receptor. For orientation: A flow cytometer gives signals particle by particle.
The target is the same in assay [2]. Briefly: dual receptor direct binding assay, flow cytometry on K562-αvβ3 cells.
Assay [3] deals with soluble Met receptor (UniProt P08581). Nature of the assay: yeast surface display, 0.5 nM and 5 nM soluble Met.
For assay [4], the target named is soluble αvβ3 integrin (UniProt P06756). Nature of the assay: yeast surface display of the binder, soluble αvβ3 integrin at 0.5 nM and 5 nM, flow cytometry.
Assay [5] has as its target soluble Met receptor (UniProt P08581). Nature of the assay: yeast surface display of the binder, soluble Met at 0.5 nM and 5 nM, flow cytometry.
Assay [6] addresses soluble αvβ3 integrin (UniProt P06756). Briefly: yeast surface display, 0.5 nM and 5 nM soluble αvβ3 integrin.
Assay [7] concerns the target αvβ3 integrin on K562-αvβ3 cells (K562 leukemia cells transfected with αvβ3 integrin) (UniProt P06756). Briefly: binding to K562 cells transfected with αvβ3 integrin.
Assay [8] addresses soluble αvβ3 integrin (UniProt P06756). Nature of the assay: yeast surface display, 20, 50 or 100 nM αvβ3 integrin.
Assay [9] has the same target. Briefly: yeast surface display.
Assay [10] has the same target. Nature of the assay: yeast surface display, soluble αvβ3 integrin at 100 and 200 nM, alone or with 100 nM soluble Gas6, flow cytometry.
Assay [11] has the same target. Nature of the assay: yeast surface display, 100 or 200 nM αvβ3 integrin in the presence of 100 nM Gas6.
Assay [12] has the same target. Briefly: yeast surface display, soluble αvβ3 integrin.
Assay [13] concerns the target αvβ3 integrin on K562-αvβ3 cells (K562 leukemia cells transfected with αvβ3 integrin) (UniProt P06756). Briefly: binding to cells transfected to overexpress the αvβ3 integrin.

B1: AgRP7A-Aras4 fusion protein (soluble, FLAG and His tagged) (designed binder)
chain: DYKDDDDKPRGCVRLHESCLGQQVPCCDPAATCYCSGRGDNDLVCYCRYAEGQGKRRNTIHEFKKSAKTTLIKIDPALRIKTEKANTADQCANRCTRSKGLPFTCKAFVFDKARKRCLWFPFNSMSSGVKKEFGHEFDLYENKAYIRDCIIGRGRNYRGTVSITKSGIKCQPWSAMIPHEHSFLPSSYRGEDLRENYCRNPRGEEGGPWCYTSDPEVRYEVCDIPQCSEVETRHHHHHH
Regarding B1, the binding result in assay [1] is recorded as “binds”.

B2: AgRp7A-M2.2 fusion protein (designed binder)
chain: DYKDDDDKPRGCVRLHESCLGQQVPCCDPAATCYCSGRGDNDLVCYCRYAEGQRKRRNTIHEFKKSAKTTLIKIDPALKIKTEKVNTADQCANRCTRNKGLPFTCKAFVFDKARKRCLWFPFNSMSSGVKKEFGHEFDLYENKDYIRDCIIGNGRSYRGTVSITKSGIKCQPWSSMIPHEHSFLPSSYRGEDLRENYCRNPRGEEGGPWCFTSDPEVRYEVCDIPQCSEVETRHHHHHH
Turning to B2, the binding result in [2] was “binds”.

B3: AgRp7A-M2.2(D127A) fusion protein (designed binder)
chain: DYKDDDDKPRGCVRLHESCLGQQVPCCDPAATCYCSGRGDNDLVCYCRYAEGQRKRRNTIHEFKKSAKTTLIKIDPALKIKTEKVNTADQCANRCTRNKGLPFTCKAFVFDKARKRCLWFPFNSMSSGVKKEFGHEFDLYENKDYIRACIIGNGRSYRGTVSITKSGIKCQPWSSMIPHEHSFLPSSYRGEDLRENYCRNPRGEEGGPWCFTSDPEVRYEVCDIPQCSEVETRHHHHHH
Consider B3, for which, in assay [2], the binding result was “binds”.

B4: AgRP7A-Aras4 fusion protein (yeast surface displayed) (designed binder)
chain: GCVRLHESCLGQQVPCCDPAATCYCSGRGDNDLVCYCRYAEGQGKRRNTIHEFKKSAKTTLIKIDPALRIKTEKANTADQCANRCTRSKGLPFTCKAFVFDKARKRCLWFPFNSMSSGVKKEFGHEFDLYENKAYIRDCIIGRGRNYRGTVSITKSGIKCQPWSAMIPHEHSFLPSSYRGEDLRENYCRNPRGEEGGPWCYTSDPEVRYEVCDIPQCSEVE
With B4, the binding entry in the assay with soluble Met receptor [3], with soluble αvβ3 integrin [4], in the assay with soluble Met receptor [5] and with soluble αvβ3 integrin [6] was “binds” each time.

B5: knottin 2.5F-Fc (EETI 2.5F fused to the Fc domain of mouse Ig2a) (Fc fusion)
chain: GCPRPRGDNPPLTCKQDSDCLAGCVCGPNGFCGEPRGPTIKPCPPCKCPAPNLLGGPSVFIFPPKIKDVLMISLSPIVTCVVVDVSEDDPDVQISWFVNNVEVHTAQTQTHREDYNSTLRVVSALPIQHQDWMSGKEFKCKVNNKDLPAPIERTISKPKGSVRAPQVYVLPPPEEEMTKKQVTLTCMVTDFMPEDIYVEWTNNGKTELNYKNTEPVLDSDGSYFMYSKLRVEKKNWVERNSYSCSVVHEGLHNHHTTKSFSRTPGK
Regarding B5, the binding entry in [7] was “binds”.

B6: knottin 2.5D-Fc (EETI 2.5D fused to the Fc domain of mouse Ig2a) (Fc fusion)
chain: GCPQGRGDWAPTSCKQDSDCRAGCVCGPNGFCGEPRGPTIKPCPPCKCPAPNLLGGPSVFIFPPKIKDVLMISLSPIVTCVVVDVSEDDPDVQISWFVNNVEVHTAQTQTHREDYNSTLRVVSALPIQHQDWMSGKEFKCKVNNKDLPAPIERTISKPKGSVRAPQVYVLPPPEEEMTKKQVTLTCMVTDFMPEDIYVEWTNNGKTELNYKNTEPVLDSDGSYFMYSKLRVEKKNWVERNSYSCSVVHEGLHNHHTTKSFSRTPGK
As for B6, the binding entry in [7] is “binds”.

B7: EETI2.5F-M2.2 fusion protein (designed binder)
chain: DYKDDDDKPRGCPRPRGDNPPLTCSQDSDCLAGCVCGPNGFCGYAEGQRKRRNTIHEFKKSAKTTLIKIDPALKIKTEKVNTADQCANRCTRNKGLPFTCKAFVFDKARKRCLWFPFNSMSSGVKKEFGHEFDLYENKDYIRDCIIGNGRSYRGTVSITKSGIKCQPWSSMIPHEHSFLPSSYRGEDLRENYCRNPRGEEGGPWCFTSDPEVRYEVCDIPQCSEVETRHHHHHH
B7: in assay [2], the binding entry is given as “binds”.

B8: EETI2.5F-M2.2(D127A) fusion protein (designed binder)
chain: DYKDDDDKPRGCPRPRGDNPPLTCSQDSDCLAGCVCGPNGFCGYAEGQRKRRNTIHEFKKSAKTTLIKIDPALKIKTEKVNTADQCANRCTRNKGLPFTCKAFVFDKARKRCLWFPFNSMSSGVKKEFGHEFDLYENKDYIRACIIGNGRSYRGTVSITKSGIKCQPWSSMIPHEHSFLPSSYRGEDLRENYCRNPRGEEGGPWCFTSDPEVRYEVCDIPQCSEVETRHHHHHH
Consider B8, for which the binding entry in assay [2] was “binds”.
Consider GCPQGRGDWAPTSCKQDSDCRAGCVCGPNGFCG (designed binder) [EETI-II mutant 2.5D (yeast-displayed)], for which the binding entry in the assay with soluble αvβ3 integrin [8] is “binds”.

B9: EETI 2.5D-Axl fusion protein (yeast-displayed) (designed binder)
chain: GCPQGRGDWAPTSCSQDSDCLAGCVCGPNGFCGSRGTQAEESPFVGNPGNITGARGLTGTLRCQLQVQGEPPEVHWLRDGQILELADSTQTQVPLGEDEQDDWIVVSQLRITSLQLSDTGQYQCLVFLGHQTFVSQPGYVGLEGLP
For the molecule B9, the binding result with soluble αvβ3 integrin [9], with soluble αvβ3 integrin [10], with soluble αvβ3 integrin [8], in the assay with soluble αvβ3 integrin [11] and with soluble αvβ3 integrin [12] was “binds” in each case.

B10: EETI 2.5D-Axl fusion protein (soluble, produced in P. pastoris) (designed binder)
chain: GCPQGRGDWAPTSCSQDSDCLAGCVCGPNGFCGSRGTQAEESPFVGNPGNITGARGLTGTLRCQLQVQGEPPEVHWLRDGQILELADSTQTQVPLGEDEQDDWIVVSQLRITSLQLSDTGQYQCLVFLGHQTFVSQPGYVGLEGLP
As for B10, the binding entry in assay [13] is listed as “binds”.
For GCVRLHESCLGQQVPCCDPAATCYCSGRGDNDLVCYCR (designed binder) [AgRP mutant 7A], the binding result in the assay with soluble αvβ3 integrin [4] and with soluble αvβ3 integrin [6] was “binds” in each case.
